According to publication PMC8256295:
No constants are given. Whether binding was seen depends on the method and setting. For some of these results: Binding seen in cells or lysates may run through a third protein. Some entries that bind do so weakly or less than the wild type. For some of these results: Where a sequence is shown, tags or fusion partners need not be part of it.

Sequences of proteins named here, by UniProt entry; tags and fusion partners are left off.
UniProt O08573: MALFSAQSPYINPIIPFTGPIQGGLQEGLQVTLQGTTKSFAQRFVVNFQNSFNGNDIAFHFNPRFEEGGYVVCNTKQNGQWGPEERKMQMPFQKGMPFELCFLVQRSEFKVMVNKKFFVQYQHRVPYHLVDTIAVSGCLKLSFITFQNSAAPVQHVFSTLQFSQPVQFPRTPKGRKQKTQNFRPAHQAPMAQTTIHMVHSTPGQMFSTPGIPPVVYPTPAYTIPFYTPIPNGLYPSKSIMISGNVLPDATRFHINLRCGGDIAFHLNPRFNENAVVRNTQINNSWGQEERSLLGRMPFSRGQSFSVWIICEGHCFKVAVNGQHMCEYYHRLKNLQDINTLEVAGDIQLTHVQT

Tests used:
[1] = biological target: T1, transforming growth factor β-activated kinase 1 (TAK1) (plasmid-expressed in HEK293T cells) (UniProt O43318); assay: co-IP; HEK293T cells transiently transfected for 48 h; lysates incubated with anti-Flag M2 Affinity Gel and anti-GFP agarose beads at 4°C overnight; immunoblot
T1 sequence: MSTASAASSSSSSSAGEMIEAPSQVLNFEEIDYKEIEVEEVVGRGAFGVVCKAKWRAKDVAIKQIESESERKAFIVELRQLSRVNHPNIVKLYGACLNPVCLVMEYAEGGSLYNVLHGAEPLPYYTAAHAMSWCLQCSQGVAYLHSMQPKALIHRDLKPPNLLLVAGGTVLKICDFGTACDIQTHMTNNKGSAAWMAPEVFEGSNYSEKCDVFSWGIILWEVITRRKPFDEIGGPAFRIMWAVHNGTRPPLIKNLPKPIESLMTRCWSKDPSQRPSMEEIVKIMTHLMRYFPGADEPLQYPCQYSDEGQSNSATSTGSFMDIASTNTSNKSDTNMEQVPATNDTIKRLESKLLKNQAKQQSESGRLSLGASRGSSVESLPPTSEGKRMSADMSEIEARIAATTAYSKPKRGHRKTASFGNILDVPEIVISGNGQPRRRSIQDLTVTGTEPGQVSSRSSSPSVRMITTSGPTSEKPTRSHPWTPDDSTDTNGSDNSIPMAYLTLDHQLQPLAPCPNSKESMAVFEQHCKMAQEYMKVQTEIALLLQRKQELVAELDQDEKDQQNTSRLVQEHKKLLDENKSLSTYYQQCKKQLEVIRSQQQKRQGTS

[2] = biological target: T2, TAK1, endogenous in THP-1 cells (human (endogenous in THP-1)) (UniProt O43318); assay: co-IP; endogenous proteins; THP-1 cells or mouse primary peritoneal macrophages left unstimulated or stimulated with AG (1 μg/ml) for 1 h; lysates incubated with anti-TAK1 antibody and protein A/G sepharose at 4°C overnight; immunoblot
T2 sequence: T1 sequence

[3] = biological target: T3, TAK1, endogenous in mouse peritoneal macrophages (mouse (endogenous in peritoneal macrophages)) (UniProt Q62073); assay: as above
T3 sequence: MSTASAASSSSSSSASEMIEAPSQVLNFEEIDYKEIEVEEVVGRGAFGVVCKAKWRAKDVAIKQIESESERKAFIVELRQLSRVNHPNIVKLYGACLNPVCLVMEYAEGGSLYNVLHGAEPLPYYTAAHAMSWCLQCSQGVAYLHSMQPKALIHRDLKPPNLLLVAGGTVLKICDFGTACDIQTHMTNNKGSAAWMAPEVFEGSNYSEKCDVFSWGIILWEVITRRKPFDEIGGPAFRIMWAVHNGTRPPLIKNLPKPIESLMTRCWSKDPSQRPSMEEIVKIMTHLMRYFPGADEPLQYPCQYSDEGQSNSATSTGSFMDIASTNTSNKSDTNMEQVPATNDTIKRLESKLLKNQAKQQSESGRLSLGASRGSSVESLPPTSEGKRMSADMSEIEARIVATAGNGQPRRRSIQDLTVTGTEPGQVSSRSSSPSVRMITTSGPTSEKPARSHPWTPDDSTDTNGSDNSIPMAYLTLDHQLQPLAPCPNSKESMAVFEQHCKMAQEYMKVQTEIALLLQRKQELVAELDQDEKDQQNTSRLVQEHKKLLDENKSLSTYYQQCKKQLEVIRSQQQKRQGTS

GST-tagged TAK1 = biological target: T4, GST-tagged TAK1 (UniProt O43318); assay: pull-down; in vitro GST precipitation: purified His-tagged galectin-9 with GST alone or GST-tagged TAK1; both purified
T4 sequence: T1 sequence

With “Galectin-9 (plasmid-expressed in HEK293T cells) (from UniProt O00182 1-355)” the binding [1] was “binds”.

For “galectin-9, endogenous in THP-1 cells (from UniProt O00182 1-355)”, the binding [2] was “binds”.

With “galectin-9, endogenous in mouse peritoneal macrophages (from UniProt O08573 1-353)” the binding [3] was “binds”.

With “purified histidine (His)-tagged Galectin-9 (from UniProt O00182 1-355)” the binding (GST-tagged TAK1) was “binds”.
